In patent US20210299079A1, “MONOMETHYL FUMARATE-CARRIER CONJUGATES AND METHODS OF THEIR USE” (Flagship Pioneering Innovations V, Inc., priority 2018, published 2021):
For at least one compound, name, drawing or mass did not settle the structure.

Assay: Gastrointestinal (GI) Exposure to Propionate (Study 1)
Assay type: in vivo, CD-1 mice
Conditions: mouse, single oral dose: Propionate-d3 62 mg/kg, Compound 3-d12 110 mg/kg, Compound 6-d9 91 mg/kg
Method: In order to measure propionate concentrations along the GI track, CD-1 mice were orally administered a single dose of deuterated sodium propionate, Compound 3 comprising deuterated propionate, or Compound 6 comprising deuterated propionate (Propionate-d3, Compound 3-d12, and Compound 6-d9, respectively; suspension, 1% (w/v) methyl cellulose in deionized water). The amounts of compound dosed were normalized to provide approximately equimolar amounts of […] (Propionate-d3 at 62 mg/kg, Compound 3-d12 at 110 mg/kg, and Compound 6-d9 at 91 mg/kg). […] Blood samples were collected in K2EDTA tubes and stored on wet ice no more than 30 min and then further processed to plasma. GI samples were placed into separate labeled, pre-weighted collection tubes and frozen before analysis. Brain samples were homogenized prior to analysis. Samples were subsequently worked up and analyzed by LC-MS/MS for deuterated propionate concentration. Propionate concentrations versus time for different tissues are depicted in FIGS. 4A-4H and 5A-5C.

[2H]C([2H])([2H])CC(=O)[O-].[Na+] [Propionate-d3, sodium propionate-d3, reference compound]
Propionate-d3 Cmax (Brain): below quantitative | Propionate-d3 Cmax (Cecum): 29 nmol/g | Propionate-d3 Cmax (Distal Colon): 12 nmol/g | Propionate-d3 Cmax (Distal Intestine): 9.2 nmol/g | Propionate-d3 Cmax (Proximal Colon): 23 nmol/g | Propionate-d3 Cmax (Proximal Intestine): 22 nmol/g | Propionate-d3 Cmax (Stomach): 5540 nmol/g
